Measurements reported in the supplement of paper PMC9233669.
Variants at the background level are over-represented here.

Columns and labels:
biotinyl-Ile-oxazolone = assay: self-aminoacylation, catalytic enhancement (BIO) (fold over background); higher = more active; k-Seq, kA / k0A0; sequences stand for … in GGGAAUGGAUCCACAUCUACGAAUUC…UUCACUGCAGACUUGACGAAGCUG
Outline: (§1)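 The uncatalyzed rate is the low-activity peak of a bimodal Gaussian fit, and catalytic enhancement is median kA divided by it. The kA values came from pseudo-first-order fits, with 1000 bootstraps, of per-sequence fraction reacted measured by streptavidin capture, triplicate qPCR and Illumina sequencing. Mutagenized RNA pools with a 21-nt variable region (0.43 μM) were reacted with each biotinyl-aminoacyl-oxazolone at 2–1250 μM in 50 μL HEPES/NaCl/KCl/MgCl2/CaCl2 buffer with 5% acetonitrile, pH 6.9–7.0, for 90 minutes at room temperature.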

biotinyl-Leu-oxazolone = assay: self-aminoacylation, catalytic enhancement (BLO) (fold over background); higher = more active; k-Seq, kA / k0A0; sequences stand for … in GGGAAUGGAUCCACAUCUACGAAUUC…UUCACUGCAGACUUGACGAAGCUG
Outline: as §1

biotinyl-Phe-oxazolone = assay: self-aminoacylation, catalytic enhancement (BFO) (fold over background); higher = more active; k-Seq, kA / k0A0; sequences stand for … in GGGAAUGGAUCCACAUCUACGAAUUC…UUCACUGCAGACUUGACGAAGCUG
Outline: as §1

biotinyl-Met-oxazolone = assay: self-aminoacylation, catalytic enhancement (BMO) (fold over background); higher = more active; k-Seq, kA / k0A0; sequences stand for … in GGGAAUGGAUCCACAUCUACGAAUUC…UUCACUGCAGACUUGACGAAGCUG
Outline: as §1

biotinyl-Val-oxazolone = assay: self-aminoacylation, catalytic enhancement (BVO) (fold over background); higher = more active; k-Seq, kA / k0A0; sequences stand for … in GGGAAUGGAUCCACAUCUACGAAUUC…UUCACUGCAGACUUGACGAAGCUG
Outline: as §1

biotinyl-Trp-oxazolone = assay: self-aminoacylation, catalytic enhancement (BWO) (fold over background); higher = more active; k-Seq, kA / k0A0; sequences stand for … in GGGAAUGGAUCCACAUCUACGAAUUC…UUCACUGCAGACUUGACGAAGCUG
Outline: as §1

Row | Sequence | self-aminoacylation (biotinyl-Ile-oxazolone) | self-aminoacylation (biotinyl-Leu-oxazolone) | self-aminoacylation (biotinyl-Phe-oxazolone) | self-aminoacylation (biotinyl-Met-oxazolone) | self-aminoacylation (biotinyl-Val-oxazolone) | self-aminoacylation (biotinyl-Trp-oxazolone)
1 | AAGUUUGCUAAUAGACCCAAG [Fam3.1 aminoacylation ribozyme variant] | 0.672 | 0.502 | 1.03 | 0.928 | 0.736 | 0.477
2 | AAGUUUGCUAAUAGCCUCAAG [Fam3.1 aminoacylation ribozyme variant] | 0.648 | 0.419 | 1.22 | 0.666 | 0.646 | 0.926
3 | AAGUUUGCUAAUAGCGGCAAG [Fam3.1 aminoacylation ribozyme variant] | 0.668 | 0.575 | 0.964 | 0.508 | 0.646 | 0.924
4 | AAGUUUGCUAAUAGGAGCAAG [Fam3.1 aminoacylation ribozyme variant] | 0.722 | 0.714 | 0.799 | 0.677 | 0.878 | 0.632
5 | AAGUUUGCUAAUAGGCGCCAG [Fam3.1 aminoacylation ribozyme variant] | 0.767 | 0.75 | 0.389 | 0.995 | 0.964 | 1.08
6 | AAGUUUGCUAAUAGUAGGAAG [Fam3.1 aminoacylation ribozyme variant] | 1.03 | 1 | 1.25 | 1.03 | 1.12 | 1.54
7 | AAGUUUGCUAAUAGUCACAUG [Fam3.1 aminoacylation ribozyme variant] | 1.14 | 0.963 | 1.48 | 1.06 | 1.36 | 1.1
8 | AAGUUUGCUAAUAGUCCCAGG [Fam3.1 aminoacylation ribozyme variant] | 1.14 | 1.26 | 1.15 | 1.12 | 1.3 | 1.4
9 | AAGUUUGCUAAUAGUCGAAAC [Fam3.1 aminoacylation ribozyme variant] | 0.908 | 0.934 | 1.11 | 0.983 | 0.886 | 0.92
10 | AAGUUUGCUAAUAGUCGCCAA [Fam3.1 aminoacylation ribozyme variant] | 1.39 | 0.958 | 1.77 | 1.02 | 1.25 | 1.2
11 | AAGUUUGCUAAUAGUCGGGAG [Fam3.1 aminoacylation ribozyme variant] | 1.39 | 0.892 | 1.71 | 1.12 | 1.55 | 1.88
12 | AAGUUUGCUAAUCAUCGCAAG [Fam3.1 aminoacylation ribozyme variant] | 0.726 | 0.683 | 1.04 | 0.517 | 0.747 | 0.73
13 | AAGUUUGCUAAUGGUCGUAAG [Fam3.1 aminoacylation ribozyme variant] | 0.598 | 0.557 | 1.26 | 0.539 | 0.715 | 0.688
14 | AAGUUUGCUAAUGGUGGCAAG [Fam3.1 aminoacylation ribozyme variant] | 0.803 | 0.47 | 0.67 | 0.644 | 0.536 | 0.815
15 | AAGUUUGCUAAUUAUCGCAAG [Fam3.1 aminoacylation ribozyme variant] | 0.875 | 0.554 | 0.951 | 0.736 | 0.794 | 0.8
16 | AAGUUUGCUACUAAUCGCAAG [Fam3.1 aminoacylation ribozyme variant] | 0.878 | 0.805 | 1.01 | 0.793 | 0.831 | 0.764
17 | AAGUUUGCUACUAGUCGAAAG [Fam3.1 aminoacylation ribozyme variant] | 0.948 | 0.858 | 0.954 | 0.791 | 0.861 | 1
18 | AAGUUUGCUACUUGUCGCAAG [Fam3.1 aminoacylation ribozyme variant] | 1.05 | 1.06 | 1.01 | 0.928 | 1.12 | 1.21
19 | AAGUUUGCUAGUAGACGCAAG [Fam3.1 aminoacylation ribozyme variant] | 0.726 | 0.986 | 1.46 | 0.871 | 0.983 | 0.658
20 | AAGUUUGCUAUUAUUCGCAAG [Fam3.1 aminoacylation ribozyme variant] | 1.15 | 0.91 | 0.908 | 0.96 | 0.901 | 0.896
21 | AAGUUUGCUCAUAGACGCAAG [Fam3.1 aminoacylation ribozyme variant] | 0.587 | 0.548 | 0.968 | 0.451 | 0.564 | 0.627
22 | AAGUUUGCUGAUAGACGCAAG [Fam3.1 aminoacylation ribozyme variant] | 0.538 | 0.712 | 0.471 | 0.727 | 0.83 | 0.929
23 | AAGUUUGCUGAUGGUCGCAAG [Fam3.1 aminoacylation ribozyme variant] | 0.915 | 0.787 | 0.8 | 0.894 | 0.691 | 0.79
